According to US20250122304A1, “PRE-TARGETING” (Precirix N.V., priority 2022, published 2025):
Results are given in words; binding and its absence hold for the method and conditions named. Some entries that bind do so weakly or less than the wild type.

Chains of the proteins cited; added tags and fusions are not shown. Lines headed by an entry give the natural chain unless they say otherwise; changes in a name come on top.
UniProt Q12884: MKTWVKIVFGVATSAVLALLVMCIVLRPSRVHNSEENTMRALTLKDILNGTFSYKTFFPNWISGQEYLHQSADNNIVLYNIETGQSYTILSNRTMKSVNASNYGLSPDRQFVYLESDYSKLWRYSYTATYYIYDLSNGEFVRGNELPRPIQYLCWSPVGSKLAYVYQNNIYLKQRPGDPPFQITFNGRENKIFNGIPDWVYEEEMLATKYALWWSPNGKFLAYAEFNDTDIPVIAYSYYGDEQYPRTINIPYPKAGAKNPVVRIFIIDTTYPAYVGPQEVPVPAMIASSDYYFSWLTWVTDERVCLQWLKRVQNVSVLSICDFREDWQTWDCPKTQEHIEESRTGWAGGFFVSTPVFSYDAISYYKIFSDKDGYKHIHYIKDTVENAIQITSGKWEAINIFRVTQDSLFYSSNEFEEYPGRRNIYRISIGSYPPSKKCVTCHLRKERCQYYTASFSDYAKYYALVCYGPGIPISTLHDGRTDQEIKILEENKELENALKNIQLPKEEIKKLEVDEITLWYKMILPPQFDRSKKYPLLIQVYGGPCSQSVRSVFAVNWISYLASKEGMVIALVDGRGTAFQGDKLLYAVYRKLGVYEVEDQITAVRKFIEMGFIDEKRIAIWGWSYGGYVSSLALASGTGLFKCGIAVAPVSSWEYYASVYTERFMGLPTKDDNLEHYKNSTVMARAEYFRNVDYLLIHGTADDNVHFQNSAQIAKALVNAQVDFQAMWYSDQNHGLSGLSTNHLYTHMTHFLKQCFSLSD

B1: VHH9 (VHH)
VHH: QVQLQESGGGLVQSGGSLRLSCVASGSISSINAMGWYRQAPGNKREWVAGITSGGSTNYADAVLGRFSIFRDNPKNTVYLQMNSLKPEDTAVYYCNTWPPSTFGSWGQGTQVTVSS
notes: Anti-FAP VHH, tested before TCO conjugation; also called unconjugated VHH9
B2: TCO-VHH9 (VHH)
VHH: B1 VHH
modifications: trans-cyclooctene (TCO) conjugated via TCO-NHS; site(s) and number not stated
notes: also called TCO conjugated VHH9; VHH9 post conjugation
B3: VHH8 (VHH)
VHH: QVQLQESGGGTVQPGGSLRLSCAASGISVSIASMAWYRQAPGKQRELVAGIISGGSTNYADSVKGRFTISRDNAKKVVLLQMNSLKPEDTAVYYCNTYPPFVGPGATATWGQGTQVTVSS
notes: Anti-FAP VHH, tested before TCO conjugation; also called unconjugated VHH8
B4: TCO-VHH8 (VHH)
VHH: B3 VHH
modifications: trans-cyclooctene (TCO) conjugated via TCO-NHS; site(s) and number not stated
notes: also called TCO conjugated VHH8; VHH8 post conjugation
B5: VHH7 (VHH)
VHH: QVQLQESGGGLVQAGGSLRLSCTASGTFSGRNAMAWYRQAPGKRRELVAGIRSDDSTNYVDSVKGRFTISRDNAKNTVYLQMNSLRPEDTAVYYCNLWPPVIGAGFGSWGQGTQVTVSS
notes: Anti-FAP VHH, tested before TCO conjugation; also called unconjugated VHH7
B6: TCO-VHH7 (VHH)
VHH: B5 VHH
modifications: trans-cyclooctene (TCO) conjugated via TCO-NHS; site(s) and number not stated
notes: also called TCO conjugated VHH7; VHH7 post conjugation

Biological target: human fibroblast activation protein (FAP) (human) (UniProt Q12884)
Experiment: BLI (Octet)

binding	Binder
binds	B1
binds	B2
binds	B3
binds	B4
binds	B5
binds	B6
